Data on one substance can be found in publication PMC10573421.

Amino acid sequences for entries named in this document (tags omitted). Residues count along the entry.
UniProt P78504, residues 34-1218: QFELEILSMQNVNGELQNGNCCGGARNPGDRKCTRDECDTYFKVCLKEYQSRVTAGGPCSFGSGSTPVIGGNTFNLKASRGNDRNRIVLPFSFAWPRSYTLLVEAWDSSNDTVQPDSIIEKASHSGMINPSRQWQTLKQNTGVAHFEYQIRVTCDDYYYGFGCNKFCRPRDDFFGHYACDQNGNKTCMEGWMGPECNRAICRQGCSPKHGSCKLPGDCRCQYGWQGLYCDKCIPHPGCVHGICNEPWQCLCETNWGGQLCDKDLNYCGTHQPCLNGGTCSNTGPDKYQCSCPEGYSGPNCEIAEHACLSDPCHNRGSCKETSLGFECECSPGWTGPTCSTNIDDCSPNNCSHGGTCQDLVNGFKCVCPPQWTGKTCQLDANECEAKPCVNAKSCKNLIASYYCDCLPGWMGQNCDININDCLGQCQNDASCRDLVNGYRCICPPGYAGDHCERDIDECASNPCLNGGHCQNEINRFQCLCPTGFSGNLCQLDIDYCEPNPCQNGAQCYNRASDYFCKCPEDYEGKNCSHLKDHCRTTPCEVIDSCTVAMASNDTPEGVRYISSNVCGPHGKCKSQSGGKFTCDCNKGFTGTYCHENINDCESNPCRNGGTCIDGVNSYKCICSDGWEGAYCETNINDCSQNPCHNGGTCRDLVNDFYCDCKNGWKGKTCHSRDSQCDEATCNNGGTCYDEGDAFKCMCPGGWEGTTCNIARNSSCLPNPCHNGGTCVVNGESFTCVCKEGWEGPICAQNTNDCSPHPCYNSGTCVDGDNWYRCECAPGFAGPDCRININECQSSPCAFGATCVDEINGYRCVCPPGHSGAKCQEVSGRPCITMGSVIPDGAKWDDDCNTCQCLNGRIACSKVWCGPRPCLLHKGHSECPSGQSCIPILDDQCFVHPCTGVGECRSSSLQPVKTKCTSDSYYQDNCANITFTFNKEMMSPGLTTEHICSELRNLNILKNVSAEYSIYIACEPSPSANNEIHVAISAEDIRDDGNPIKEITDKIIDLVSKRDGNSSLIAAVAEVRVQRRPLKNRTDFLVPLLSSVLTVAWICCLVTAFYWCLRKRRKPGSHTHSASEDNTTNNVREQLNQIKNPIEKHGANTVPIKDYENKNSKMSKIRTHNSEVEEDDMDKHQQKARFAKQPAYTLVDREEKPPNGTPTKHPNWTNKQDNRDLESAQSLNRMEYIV
UniProt P07355: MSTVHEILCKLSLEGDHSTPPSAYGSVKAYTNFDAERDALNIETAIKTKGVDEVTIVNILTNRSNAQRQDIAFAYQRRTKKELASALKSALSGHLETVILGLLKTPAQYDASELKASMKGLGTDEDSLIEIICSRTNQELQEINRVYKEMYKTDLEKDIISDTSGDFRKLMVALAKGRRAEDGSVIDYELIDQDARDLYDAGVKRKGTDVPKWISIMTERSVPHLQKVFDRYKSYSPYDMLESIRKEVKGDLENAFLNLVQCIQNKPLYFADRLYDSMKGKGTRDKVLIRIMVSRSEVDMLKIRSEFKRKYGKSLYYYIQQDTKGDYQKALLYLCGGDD

These are yes or no findings as the source states them, for the method shown. Binding seen in cells or lysates may run through a third protein. Some binding calls cover weakened binding; strength is not graded here.

The assay addresses C-terminal-HA-tagged JAG1 (UniProt P78504). The assay can be described thus: co-IP; ANXA2-FLAG with C-terminal-HA-tagged JAG1 (Supplementary Figure S1F); cells not given.

Consider ANXA2-FLAG (from UniProt P07355 1-339), for which the binding entry was “binds”.
